Test results: the supplement of paper PMC10849652
The other results are listed elsewhere or left out.

The chains behind the UniProt entries cited, without tags or fusion partners. Where a name states a change or a piece, a line headed by the entry shows the natural chain unless it says otherwise.
UniProt Q9BVL4, whole entry, looked up: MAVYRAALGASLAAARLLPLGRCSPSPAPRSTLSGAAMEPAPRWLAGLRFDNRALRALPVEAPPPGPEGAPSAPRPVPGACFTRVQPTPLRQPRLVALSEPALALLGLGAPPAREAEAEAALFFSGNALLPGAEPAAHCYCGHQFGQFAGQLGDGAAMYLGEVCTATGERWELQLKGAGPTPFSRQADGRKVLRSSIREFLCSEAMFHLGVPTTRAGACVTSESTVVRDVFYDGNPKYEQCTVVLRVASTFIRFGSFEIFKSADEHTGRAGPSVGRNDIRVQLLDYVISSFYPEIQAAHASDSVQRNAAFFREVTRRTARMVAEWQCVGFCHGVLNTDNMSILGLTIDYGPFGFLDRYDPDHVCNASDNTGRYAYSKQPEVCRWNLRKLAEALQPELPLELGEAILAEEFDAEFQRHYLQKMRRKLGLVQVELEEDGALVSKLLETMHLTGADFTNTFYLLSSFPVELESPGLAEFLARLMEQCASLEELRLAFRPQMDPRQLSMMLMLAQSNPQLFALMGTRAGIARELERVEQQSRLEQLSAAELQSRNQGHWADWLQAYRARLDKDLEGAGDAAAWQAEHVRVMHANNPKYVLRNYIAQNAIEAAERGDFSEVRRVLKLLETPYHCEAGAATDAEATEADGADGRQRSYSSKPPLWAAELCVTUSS
UniProt P62341, whole entry, looked up: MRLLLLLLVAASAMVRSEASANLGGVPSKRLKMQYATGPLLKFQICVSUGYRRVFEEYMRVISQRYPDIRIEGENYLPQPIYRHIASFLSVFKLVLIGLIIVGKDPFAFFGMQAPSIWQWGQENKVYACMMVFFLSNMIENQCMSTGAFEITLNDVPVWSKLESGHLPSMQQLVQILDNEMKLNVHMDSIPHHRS
UniProt Q96GA7: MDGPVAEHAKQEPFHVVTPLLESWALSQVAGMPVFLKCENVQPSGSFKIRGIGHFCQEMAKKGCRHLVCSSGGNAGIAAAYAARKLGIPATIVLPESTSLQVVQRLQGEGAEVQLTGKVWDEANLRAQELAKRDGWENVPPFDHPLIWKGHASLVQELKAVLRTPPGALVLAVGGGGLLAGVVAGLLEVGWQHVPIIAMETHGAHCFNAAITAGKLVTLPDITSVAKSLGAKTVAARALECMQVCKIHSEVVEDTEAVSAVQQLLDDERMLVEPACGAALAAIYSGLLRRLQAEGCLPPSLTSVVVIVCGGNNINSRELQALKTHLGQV
UniProt O94885: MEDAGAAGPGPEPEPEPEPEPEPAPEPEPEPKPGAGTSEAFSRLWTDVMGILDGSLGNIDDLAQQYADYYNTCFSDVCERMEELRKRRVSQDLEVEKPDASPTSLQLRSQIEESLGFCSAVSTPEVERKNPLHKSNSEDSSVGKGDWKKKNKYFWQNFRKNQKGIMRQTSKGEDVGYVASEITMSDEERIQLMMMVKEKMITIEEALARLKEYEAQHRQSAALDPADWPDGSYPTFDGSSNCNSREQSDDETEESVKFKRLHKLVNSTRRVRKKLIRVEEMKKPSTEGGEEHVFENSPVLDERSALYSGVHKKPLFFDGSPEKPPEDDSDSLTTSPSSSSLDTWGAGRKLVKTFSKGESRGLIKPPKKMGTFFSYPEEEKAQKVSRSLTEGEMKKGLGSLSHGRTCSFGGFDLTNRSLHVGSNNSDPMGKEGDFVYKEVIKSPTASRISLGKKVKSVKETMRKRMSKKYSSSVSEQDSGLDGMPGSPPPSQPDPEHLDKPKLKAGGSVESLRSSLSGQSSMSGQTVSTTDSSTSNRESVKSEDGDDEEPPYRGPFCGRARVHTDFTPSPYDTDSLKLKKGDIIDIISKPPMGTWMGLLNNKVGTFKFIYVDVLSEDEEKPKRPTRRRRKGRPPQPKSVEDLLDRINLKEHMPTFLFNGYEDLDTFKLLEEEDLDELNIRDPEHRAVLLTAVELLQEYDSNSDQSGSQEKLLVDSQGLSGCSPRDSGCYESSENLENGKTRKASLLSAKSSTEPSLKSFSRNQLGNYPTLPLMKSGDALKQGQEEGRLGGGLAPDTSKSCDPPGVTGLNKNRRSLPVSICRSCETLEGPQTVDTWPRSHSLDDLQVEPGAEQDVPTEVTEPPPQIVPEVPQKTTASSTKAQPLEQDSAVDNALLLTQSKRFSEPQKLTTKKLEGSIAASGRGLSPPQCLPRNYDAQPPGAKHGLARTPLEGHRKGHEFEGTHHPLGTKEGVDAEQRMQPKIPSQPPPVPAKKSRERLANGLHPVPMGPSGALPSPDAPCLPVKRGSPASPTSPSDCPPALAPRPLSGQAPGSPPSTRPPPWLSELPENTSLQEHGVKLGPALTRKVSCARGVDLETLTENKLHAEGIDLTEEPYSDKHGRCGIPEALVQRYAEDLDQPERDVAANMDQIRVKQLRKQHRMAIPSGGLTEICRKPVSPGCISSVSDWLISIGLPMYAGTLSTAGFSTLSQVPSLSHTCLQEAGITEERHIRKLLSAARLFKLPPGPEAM
UniProt O95104: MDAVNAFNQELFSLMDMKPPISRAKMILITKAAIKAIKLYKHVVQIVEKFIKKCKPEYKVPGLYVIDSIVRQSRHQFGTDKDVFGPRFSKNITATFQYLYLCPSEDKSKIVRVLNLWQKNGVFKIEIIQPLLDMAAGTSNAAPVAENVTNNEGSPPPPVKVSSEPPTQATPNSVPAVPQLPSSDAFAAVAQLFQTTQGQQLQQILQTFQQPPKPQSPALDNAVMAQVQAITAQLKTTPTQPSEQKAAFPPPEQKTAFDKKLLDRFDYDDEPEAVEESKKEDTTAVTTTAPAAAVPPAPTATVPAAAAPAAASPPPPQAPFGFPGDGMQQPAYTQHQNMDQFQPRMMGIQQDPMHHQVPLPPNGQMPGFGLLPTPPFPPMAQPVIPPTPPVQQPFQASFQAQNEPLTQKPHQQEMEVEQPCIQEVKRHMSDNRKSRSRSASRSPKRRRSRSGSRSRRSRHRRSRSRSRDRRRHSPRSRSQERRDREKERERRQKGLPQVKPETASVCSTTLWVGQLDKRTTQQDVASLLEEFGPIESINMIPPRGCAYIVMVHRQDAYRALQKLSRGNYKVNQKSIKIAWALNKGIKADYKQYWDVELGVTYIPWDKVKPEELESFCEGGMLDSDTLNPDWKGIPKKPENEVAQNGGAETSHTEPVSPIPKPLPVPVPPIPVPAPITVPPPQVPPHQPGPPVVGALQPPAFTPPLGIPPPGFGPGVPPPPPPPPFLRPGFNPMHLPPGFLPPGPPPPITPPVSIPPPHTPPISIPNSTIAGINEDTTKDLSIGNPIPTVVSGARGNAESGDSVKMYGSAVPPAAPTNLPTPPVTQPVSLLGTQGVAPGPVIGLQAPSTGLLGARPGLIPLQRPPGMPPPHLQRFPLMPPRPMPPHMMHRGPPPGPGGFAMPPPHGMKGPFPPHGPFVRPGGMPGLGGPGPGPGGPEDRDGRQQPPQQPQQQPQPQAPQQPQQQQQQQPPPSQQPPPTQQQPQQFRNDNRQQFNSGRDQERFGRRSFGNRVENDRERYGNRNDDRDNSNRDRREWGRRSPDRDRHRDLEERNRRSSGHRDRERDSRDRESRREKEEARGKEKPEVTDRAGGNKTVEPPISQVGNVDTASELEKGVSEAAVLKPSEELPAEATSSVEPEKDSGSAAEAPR
UniProt Q14108: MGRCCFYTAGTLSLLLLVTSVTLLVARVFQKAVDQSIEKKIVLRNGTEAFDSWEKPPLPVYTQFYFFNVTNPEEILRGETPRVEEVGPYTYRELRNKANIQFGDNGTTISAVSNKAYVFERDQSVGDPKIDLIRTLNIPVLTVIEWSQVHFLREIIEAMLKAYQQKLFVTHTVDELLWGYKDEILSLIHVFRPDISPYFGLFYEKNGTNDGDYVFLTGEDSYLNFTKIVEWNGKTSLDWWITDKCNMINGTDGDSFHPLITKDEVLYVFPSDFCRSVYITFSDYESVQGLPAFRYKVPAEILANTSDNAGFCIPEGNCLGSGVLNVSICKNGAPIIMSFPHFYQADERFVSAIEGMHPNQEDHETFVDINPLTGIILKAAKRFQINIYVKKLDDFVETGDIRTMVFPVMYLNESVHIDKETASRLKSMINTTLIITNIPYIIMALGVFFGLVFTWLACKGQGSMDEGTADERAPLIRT
UniProt Q9BRK5: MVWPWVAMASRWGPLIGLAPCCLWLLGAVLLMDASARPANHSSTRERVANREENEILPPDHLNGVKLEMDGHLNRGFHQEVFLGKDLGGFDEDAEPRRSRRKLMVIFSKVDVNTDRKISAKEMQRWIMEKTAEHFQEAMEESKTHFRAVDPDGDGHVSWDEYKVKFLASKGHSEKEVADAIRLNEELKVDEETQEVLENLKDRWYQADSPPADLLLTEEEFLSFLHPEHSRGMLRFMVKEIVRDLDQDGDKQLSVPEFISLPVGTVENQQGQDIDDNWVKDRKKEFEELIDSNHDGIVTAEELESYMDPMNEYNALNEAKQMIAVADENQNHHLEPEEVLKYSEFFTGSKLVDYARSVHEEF
UniProt Q9HB40: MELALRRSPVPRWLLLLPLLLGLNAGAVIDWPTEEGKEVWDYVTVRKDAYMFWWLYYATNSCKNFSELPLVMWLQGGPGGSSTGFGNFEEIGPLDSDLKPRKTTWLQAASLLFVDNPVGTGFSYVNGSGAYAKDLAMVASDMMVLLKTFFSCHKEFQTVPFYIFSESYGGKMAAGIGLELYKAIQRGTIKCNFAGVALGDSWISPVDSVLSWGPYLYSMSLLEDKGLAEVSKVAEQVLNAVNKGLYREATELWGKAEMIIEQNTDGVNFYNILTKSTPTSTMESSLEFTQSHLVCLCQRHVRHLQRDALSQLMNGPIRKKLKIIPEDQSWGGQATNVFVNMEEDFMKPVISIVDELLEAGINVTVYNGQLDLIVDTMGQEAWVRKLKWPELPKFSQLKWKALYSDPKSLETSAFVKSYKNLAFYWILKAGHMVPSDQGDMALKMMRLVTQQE
UniProt O15127: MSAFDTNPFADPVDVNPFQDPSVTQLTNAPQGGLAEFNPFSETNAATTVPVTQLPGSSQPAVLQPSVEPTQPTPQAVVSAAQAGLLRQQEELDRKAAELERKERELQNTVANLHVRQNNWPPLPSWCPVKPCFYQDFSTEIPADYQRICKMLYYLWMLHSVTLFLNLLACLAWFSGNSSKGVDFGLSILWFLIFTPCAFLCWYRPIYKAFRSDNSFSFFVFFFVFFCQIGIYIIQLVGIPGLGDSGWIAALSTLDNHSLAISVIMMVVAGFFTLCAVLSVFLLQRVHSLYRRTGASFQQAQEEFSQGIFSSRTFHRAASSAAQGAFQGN

Key:
Test in all cases: log2 fold change, soluble protein after heating vs DMSO (PISA); higher = thermal stabilisation; K562 lysate, 10 uM; active = over 0.2 and 3.5 SD of the protein, either way, in both replicates (recomputed)
nilotinib = compound: Cc1cn(-c2cc(NC(=O)c3ccc(C)c(Nc4nccc(-c5cccnc5)n4)c3)cc(C(F)(F)F)c2)cn1 [nilotinib]
Outline: (§1)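 Thermal stability, expressed as log-two fold change relative to solvent controls, is given from duplicates. Crude K562 extract in PBS pH 7.4 with 1 mM MgCl2, at 1 mg/mL protein, was treated with 10 μM compound for 30 min and heated in aliquots for 3 min across 48°C-58°C. After pooling, adjustment to 0.5% NP-40 at 4°C and centrifugation at 21,000xg for 90 min, supernatant protein was measured by TMTpro 16plex LC-MS/MS with channel sums equalised.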

[1] = compound: Cc1nc(Nc2n[nH]c3c2CN(C(=O)N[C@H](CN(C)C)c2ccccc2)C3(C)C)c2sccc2n1
Outline: as §1

dasatinib = compound: Cc1nc(Nc2ncc(C(=O)Nc3c(C)cccc3Cl)s2)cc(N2CCN(CCO)CC2)n1 [dasatinib]
Outline: as §1

[2] = compound: Cc1ncc(-c2ccnc(Nc3ccc(S(C)(=O)=O)cc3)n2)n1C(C)C
Outline: as §1

[3] = compound: Cn1cc(-c2ccc3c(c2)CCN3C(=O)Cc2cccc(C(F)(F)F)c2)c2c(N)ncnc21
Outline: as §1

tipifarnib = compound: Cn1cncc1[C@@](N)(c1ccc(Cl)cc1)c1ccc2c(c1)c(-c1cccc(Cl)c1)cc(=O)n2C [tipifarnib]
Outline: as §1

[4] = compound: NC(=O)c1cnc(N[C@@H]2CCCC[C@@H]2N)nc1Nc1cccc(-n2nccn2)c1
Outline: as §1

quisinostat = compound: Cn1cc(CNCC2CCN(c3ncc(C(=O)NO)cn3)CC2)c2ccccc21 [quisinostat]
Outline: as §1

[5] = compound: NC(=O)Nc1cc(-c2cccc(F)c2)sc1C(=O)N[C@H]1CCCNC1
Outline: as §1

[6] = compound: NC1(c2ccc(-c3nc4ccn5c(=O)[nH]nc5c4cc3-c3ccccc3)cc2)CCC1
Outline: as §1

Measured: log2 fold change

SELENOO (UniProt Q9BVL4)
inactive: nilotinib -0.201 | [1] 0.062 | dasatinib 0.09 | [2] -0.094 | [3] -0.149 | tipifarnib 0.03 | [4] -0.156

SELENOT (UniProt P62341)
inactive: nilotinib 0.017 | [1] 0.064 | dasatinib 0.212 | [2] 0.021 | [3] 0.148 | quisinostat 0.048 | tipifarnib 0.011 | [5] -0.012 | [4] 0.013 | [6] -0.126

SDSL (UniProt Q96GA7)
inactive: nilotinib 0.054 | [1] 0.009 | dasatinib 0.024 | [2] -0.021 | [3] -0.02 | quisinostat 0.077 | tipifarnib -0.021 | [5] -0.022 | [4] -0.029 | [6] 0.027

Two successive entries out of the list so far, quoted:
SELENOT (UniProt P62341)
inactive: nilotinib 0.017 | [1] 0.064 | dasatinib 0.212 | [2] 0.021 | [3] 0.148 | quisinostat 0.048 | tipifarnib 0.011 | [5] -0.012 | [4] 0.013 | [6] -0.126

SDSL (UniProt Q96GA7)
inactive: nilotinib 0.054 | [1] 0.009 | dasatinib 0.024 | [2] -0.021 | [3] -0.02 | quisinostat 0.077 | tipifarnib -0.021 | [5] -0.022 | [4] -0.029 | [6] 0.027

(further entries)

SASH1 (UniProt O94885)
inactive: nilotinib 0.036 | [1] -0.078 | dasatinib 0.068 | [2] -0.029 | [3] -0.014 | quisinostat 0.011 | tipifarnib -0.026 | [5] -0.004 | [4] -0.057 | [6] 0.06

SEC31A (UniProt H0YAB3)
inactive: nilotinib 0.015 | [1] 0.035 | dasatinib -0.057 | [2] 0.135 | [3] 0.016 | tipifarnib -0.073 | [4] 0.054 | [6] -0.021

SCAF4 (UniProt O95104)
inactive: nilotinib -0.031 | [1] 0.007 | dasatinib -0.044 | [2] 0.059 | [3] 0.012 | quisinostat -0.081 | tipifarnib -0.068 | [5] 0.025 | [4] 0 | [6] 0.034

SEPTIN8 (UniProt F8W8I8)
inactive: nilotinib 0.077 | [1] 0.091 | dasatinib -0.134 | [2] -0.109 | [3] 0.024 | tipifarnib -0.001 | [4] 0.147 | [6] -0.075

SCARB2 isoform 2 (UniProt Q14108)
inactive: nilotinib 0.049 | [1] 0.006 | dasatinib 0 | [2] -0.074 | [3] 0.092 | tipifarnib -0.004 | [4] 0.049

SDF4 (UniProt Q9BRK5)
inactive: nilotinib 0.008 | [1] 0.018 | dasatinib 0.004 | [2] 0.043 | [3] 0.027 | quisinostat 0.032 | tipifarnib -0.023 | [5] 0.008 | [4] 0.011 | [6] 0.01

SAMD9 (UniProt Q5K651)
inactive: nilotinib -0.08 | [1] 0.032 | [2] 0.127 | quisinostat -0.074 | tipifarnib 0.151 | [5] 0.008 | [4] 0.067

SCPEP1 (UniProt Q9HB40)
inactive: nilotinib 0.103 | [1] 0.085 | dasatinib -0.014 | [2] -0.012 | [3] 0.124 | quisinostat 0.024 | tipifarnib -0.018 | [5] 0.096 | [4] -0.018 | [6] -0.047

SCAMP2 (UniProt O15127)
inactive: nilotinib -0.015 | [1] 0.025 | dasatinib 0.018 | [2] -0.051 | [3] -0.024 | quisinostat -0.061 | tipifarnib 0.05 | [5] -0.053 | [4] 0.055 | [6] -0.004
